In the supplement of paper PMC12819154, “High-throughput peptide-centric local stability assay extends protein–ligand identification to membrane proteins, tissues and bacteria” (Nature Structural & Molecular Biology, 2025) one finds log2 fold change data, which are given here for 29 targets.

Amino acid sequences for entries named in this document (tags omitted). A change or cut given only in a name is not applied to a line headed by its entry.
UniProt Q9P086: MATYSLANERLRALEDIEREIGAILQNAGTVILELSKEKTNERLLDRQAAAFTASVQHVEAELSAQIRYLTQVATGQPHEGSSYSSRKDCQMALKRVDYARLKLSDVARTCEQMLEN
UniProt Q9UBT7: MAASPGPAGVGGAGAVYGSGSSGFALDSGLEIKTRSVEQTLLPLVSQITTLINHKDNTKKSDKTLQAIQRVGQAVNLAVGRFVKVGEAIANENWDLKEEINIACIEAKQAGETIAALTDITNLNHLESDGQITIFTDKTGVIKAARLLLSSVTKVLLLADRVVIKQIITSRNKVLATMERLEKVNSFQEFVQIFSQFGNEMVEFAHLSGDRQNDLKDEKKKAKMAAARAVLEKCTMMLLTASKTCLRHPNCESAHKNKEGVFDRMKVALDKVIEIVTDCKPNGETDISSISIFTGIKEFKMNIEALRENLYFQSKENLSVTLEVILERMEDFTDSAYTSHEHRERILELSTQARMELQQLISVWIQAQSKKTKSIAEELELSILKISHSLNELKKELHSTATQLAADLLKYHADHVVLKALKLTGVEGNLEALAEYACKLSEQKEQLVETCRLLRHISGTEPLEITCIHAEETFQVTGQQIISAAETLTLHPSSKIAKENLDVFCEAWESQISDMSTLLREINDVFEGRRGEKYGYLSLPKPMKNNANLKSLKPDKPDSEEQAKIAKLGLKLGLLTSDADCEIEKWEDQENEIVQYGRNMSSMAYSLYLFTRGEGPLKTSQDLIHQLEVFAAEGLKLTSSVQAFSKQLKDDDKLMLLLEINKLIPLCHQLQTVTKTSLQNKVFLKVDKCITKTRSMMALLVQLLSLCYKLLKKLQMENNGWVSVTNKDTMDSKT
UniProt Q9P0J1: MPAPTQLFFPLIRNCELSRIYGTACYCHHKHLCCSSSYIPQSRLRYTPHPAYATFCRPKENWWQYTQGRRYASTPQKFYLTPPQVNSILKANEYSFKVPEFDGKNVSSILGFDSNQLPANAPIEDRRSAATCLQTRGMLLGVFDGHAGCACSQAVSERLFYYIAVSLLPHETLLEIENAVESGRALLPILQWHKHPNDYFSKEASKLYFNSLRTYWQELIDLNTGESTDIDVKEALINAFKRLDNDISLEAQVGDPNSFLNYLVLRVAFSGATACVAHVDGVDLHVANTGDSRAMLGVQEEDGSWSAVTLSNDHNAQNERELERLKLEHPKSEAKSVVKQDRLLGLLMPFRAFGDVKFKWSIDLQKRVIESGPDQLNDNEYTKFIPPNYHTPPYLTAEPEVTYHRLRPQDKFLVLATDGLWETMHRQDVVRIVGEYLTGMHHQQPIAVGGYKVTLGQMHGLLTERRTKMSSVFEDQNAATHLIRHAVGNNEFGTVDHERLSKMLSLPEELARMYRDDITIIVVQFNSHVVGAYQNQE
UniProt Q9UBQ5, whole entry: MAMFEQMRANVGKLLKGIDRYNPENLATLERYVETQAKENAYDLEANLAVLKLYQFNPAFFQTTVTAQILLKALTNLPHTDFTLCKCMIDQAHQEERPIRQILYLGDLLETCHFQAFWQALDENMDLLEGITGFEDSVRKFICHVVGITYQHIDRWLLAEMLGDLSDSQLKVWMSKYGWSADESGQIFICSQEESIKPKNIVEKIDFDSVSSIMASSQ
UniProt Q9UIM3: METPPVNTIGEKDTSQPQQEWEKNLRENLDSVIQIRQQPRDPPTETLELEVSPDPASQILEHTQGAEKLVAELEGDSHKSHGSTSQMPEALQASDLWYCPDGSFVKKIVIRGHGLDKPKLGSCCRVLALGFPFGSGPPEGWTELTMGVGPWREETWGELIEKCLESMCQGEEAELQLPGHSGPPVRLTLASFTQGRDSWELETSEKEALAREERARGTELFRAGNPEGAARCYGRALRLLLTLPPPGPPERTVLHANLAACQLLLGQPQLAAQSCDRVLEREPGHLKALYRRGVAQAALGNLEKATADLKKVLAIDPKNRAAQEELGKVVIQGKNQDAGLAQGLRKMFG
UniProt Q9UGL1: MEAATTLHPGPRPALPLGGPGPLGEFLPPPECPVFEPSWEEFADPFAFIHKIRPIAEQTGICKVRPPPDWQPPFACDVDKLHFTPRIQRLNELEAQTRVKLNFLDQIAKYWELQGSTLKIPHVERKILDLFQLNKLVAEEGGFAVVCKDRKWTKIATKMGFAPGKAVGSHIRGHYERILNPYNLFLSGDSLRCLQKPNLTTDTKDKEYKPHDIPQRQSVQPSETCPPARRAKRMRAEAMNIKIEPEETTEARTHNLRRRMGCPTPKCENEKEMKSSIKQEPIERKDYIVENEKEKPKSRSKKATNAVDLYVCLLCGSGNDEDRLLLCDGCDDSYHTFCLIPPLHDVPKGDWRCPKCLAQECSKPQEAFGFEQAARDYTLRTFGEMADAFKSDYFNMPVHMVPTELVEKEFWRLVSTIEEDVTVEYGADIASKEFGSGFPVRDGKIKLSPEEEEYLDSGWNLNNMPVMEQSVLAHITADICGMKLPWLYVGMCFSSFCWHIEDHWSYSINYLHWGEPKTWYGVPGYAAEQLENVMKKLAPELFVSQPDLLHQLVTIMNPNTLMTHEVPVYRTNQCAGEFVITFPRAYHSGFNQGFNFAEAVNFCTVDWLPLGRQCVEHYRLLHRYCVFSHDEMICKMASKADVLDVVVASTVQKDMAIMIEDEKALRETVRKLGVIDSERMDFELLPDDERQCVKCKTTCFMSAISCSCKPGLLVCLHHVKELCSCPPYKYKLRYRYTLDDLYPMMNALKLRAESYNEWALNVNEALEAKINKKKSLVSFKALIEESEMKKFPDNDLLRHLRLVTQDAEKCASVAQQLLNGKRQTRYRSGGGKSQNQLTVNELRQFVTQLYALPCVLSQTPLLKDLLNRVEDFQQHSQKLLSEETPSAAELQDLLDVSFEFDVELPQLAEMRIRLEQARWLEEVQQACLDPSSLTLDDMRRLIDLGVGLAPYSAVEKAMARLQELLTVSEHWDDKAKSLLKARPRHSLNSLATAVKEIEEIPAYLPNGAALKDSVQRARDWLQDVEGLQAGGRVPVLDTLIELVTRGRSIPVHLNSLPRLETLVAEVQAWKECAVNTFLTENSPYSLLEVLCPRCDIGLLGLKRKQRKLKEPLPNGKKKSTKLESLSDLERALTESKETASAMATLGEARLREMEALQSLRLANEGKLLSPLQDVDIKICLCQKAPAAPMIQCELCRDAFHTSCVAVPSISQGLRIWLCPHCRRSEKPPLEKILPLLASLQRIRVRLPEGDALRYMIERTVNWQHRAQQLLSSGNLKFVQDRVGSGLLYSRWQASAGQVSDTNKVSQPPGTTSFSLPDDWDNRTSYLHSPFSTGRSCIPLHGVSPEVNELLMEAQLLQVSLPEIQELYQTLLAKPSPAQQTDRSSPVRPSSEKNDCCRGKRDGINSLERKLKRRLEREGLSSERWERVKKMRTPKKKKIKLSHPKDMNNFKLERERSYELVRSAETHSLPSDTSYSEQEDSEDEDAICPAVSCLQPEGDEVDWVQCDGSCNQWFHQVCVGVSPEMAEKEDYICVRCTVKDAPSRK
UniProt Q9UFF9, whole entry: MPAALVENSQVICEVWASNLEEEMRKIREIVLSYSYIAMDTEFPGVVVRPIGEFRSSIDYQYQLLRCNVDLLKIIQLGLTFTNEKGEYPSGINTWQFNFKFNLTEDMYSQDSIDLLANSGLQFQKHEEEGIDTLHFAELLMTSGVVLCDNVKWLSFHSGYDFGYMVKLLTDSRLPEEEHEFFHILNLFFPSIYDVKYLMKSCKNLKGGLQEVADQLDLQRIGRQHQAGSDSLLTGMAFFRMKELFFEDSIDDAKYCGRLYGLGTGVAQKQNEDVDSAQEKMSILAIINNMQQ
UniProt Q9UHC1: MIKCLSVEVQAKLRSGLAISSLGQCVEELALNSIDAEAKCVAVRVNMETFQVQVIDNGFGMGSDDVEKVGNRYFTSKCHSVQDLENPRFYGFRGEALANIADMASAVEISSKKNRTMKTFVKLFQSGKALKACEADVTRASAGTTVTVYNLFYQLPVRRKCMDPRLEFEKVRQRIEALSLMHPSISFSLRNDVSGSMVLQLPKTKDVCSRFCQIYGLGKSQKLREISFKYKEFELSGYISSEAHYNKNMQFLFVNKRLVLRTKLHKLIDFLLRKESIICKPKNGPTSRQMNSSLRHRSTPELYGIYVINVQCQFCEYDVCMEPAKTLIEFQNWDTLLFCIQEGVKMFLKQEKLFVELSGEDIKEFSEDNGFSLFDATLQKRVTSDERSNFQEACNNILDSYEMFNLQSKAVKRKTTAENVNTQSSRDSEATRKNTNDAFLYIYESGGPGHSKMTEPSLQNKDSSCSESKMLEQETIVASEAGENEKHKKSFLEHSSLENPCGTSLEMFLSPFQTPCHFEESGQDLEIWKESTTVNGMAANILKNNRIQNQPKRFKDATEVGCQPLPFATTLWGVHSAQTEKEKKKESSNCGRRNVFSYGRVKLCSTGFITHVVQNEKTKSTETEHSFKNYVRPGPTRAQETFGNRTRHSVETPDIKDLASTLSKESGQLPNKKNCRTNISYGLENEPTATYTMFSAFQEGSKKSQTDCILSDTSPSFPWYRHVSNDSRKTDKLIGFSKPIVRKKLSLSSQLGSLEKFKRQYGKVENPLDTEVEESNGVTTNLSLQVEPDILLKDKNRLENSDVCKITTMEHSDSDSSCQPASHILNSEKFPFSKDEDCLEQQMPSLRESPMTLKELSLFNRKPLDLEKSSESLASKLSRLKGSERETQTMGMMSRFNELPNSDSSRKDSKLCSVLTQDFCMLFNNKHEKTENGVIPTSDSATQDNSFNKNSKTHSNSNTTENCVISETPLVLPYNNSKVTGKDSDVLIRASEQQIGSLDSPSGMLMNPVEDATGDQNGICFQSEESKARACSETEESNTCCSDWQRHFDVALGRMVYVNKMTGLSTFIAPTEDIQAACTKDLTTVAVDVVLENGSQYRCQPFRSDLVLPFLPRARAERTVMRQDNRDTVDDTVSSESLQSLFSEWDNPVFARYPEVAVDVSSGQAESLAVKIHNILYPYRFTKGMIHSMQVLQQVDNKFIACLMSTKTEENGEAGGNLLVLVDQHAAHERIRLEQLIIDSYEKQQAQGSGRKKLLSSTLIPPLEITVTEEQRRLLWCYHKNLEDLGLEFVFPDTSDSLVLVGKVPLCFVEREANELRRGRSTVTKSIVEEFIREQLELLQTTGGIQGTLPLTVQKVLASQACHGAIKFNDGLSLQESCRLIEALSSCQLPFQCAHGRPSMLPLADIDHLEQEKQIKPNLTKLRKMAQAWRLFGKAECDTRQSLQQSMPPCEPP
UniProt Q9UEU5: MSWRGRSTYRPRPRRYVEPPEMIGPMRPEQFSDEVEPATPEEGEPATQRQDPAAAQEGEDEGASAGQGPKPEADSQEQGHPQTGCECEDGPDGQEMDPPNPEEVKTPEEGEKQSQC
UniProt Q9UHF1: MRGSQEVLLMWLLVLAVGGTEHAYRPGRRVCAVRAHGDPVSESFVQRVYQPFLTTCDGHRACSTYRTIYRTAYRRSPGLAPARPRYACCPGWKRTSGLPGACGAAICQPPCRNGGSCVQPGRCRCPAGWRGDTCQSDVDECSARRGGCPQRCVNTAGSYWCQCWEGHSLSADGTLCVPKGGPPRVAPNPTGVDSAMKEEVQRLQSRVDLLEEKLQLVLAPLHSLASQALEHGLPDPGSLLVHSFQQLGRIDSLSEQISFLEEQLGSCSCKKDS
UniProt Q9NZC9: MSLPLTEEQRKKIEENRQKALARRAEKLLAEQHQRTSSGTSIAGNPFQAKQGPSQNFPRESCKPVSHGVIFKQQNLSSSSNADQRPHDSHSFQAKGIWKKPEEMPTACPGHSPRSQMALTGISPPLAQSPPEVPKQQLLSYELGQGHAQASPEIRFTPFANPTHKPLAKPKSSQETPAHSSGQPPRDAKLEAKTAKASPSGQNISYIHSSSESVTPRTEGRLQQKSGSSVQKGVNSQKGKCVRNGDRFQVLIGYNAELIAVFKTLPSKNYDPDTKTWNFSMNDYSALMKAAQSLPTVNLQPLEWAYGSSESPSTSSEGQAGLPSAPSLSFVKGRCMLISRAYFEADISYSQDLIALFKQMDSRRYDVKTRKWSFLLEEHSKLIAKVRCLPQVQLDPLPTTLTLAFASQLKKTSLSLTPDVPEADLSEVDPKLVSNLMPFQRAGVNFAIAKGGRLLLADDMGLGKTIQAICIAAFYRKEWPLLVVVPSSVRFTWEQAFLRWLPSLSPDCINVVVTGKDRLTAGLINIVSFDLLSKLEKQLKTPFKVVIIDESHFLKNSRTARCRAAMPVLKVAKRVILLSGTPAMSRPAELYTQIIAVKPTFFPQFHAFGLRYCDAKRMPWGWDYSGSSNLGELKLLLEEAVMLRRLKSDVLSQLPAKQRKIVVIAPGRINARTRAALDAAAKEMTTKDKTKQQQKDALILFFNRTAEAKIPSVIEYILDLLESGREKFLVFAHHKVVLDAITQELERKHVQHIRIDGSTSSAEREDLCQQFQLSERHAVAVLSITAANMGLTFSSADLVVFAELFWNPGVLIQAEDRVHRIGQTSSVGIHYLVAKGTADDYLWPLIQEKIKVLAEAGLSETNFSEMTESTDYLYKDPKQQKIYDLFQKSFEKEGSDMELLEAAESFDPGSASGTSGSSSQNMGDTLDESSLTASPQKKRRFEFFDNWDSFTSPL

Some of the results follow. Small differences around the control level are noise.

Compound in this experiment: CN[C@@H]1C[C@H]2O[C@@](C)([C@@H]1OC)n1c3ccccc3c3c4c(c5c6ccccc6n2c5c31)C(=O)NC4 [staurosporine]
The experiment in a line: log2 fold change of tryptic peptide abundance, ligand vs vehicle (limited proteolysis) (log2 ratio); higher = more trypsin-susceptible (destabilized). Conditions: ligand concentration: 20 uM; sample: K562 cleared lysate; digestion: 4 min, 22 C (HT-PELSA RT4min, Orbitrap Astral).
As to “MED11 (peptide sequence: ATYSLANER, peptide start residue: 2) (UniProt Q9P086)”, the log2 fold change is 0.452.
Under “CTNNAL1 (peptide sequence: YGYLSLPKPMK, peptide start residue: 534) (UniProt Q9UBT7)” stands 0.112; under “METTL1 (peptide sequence: NVAGAEAPPPQKR, peptide start residue: 7) (UniProt Q9UBP6)”, -0.0838; under “ZNF219 (peptide sequence: REPPSLLGYLSLR, peptide start residue: 373) (UniProt Q9P2Y4)”, 0.145.
Under “UniProt Q9P0J1 (peptide sequence: MLSLPEELAR, peptide start residue: 503)” stands 0.518; under “CCDC59 (peptide sequence: TVNSFTIPK, peptide start residue: 153) (UniProt Q9P031)”, -0.155.
Under “EIF3K (peptide sequence: AMFEQMR, peptide start residue: 2) (UniProt Q9UBQ5)” stands 0.065; under “IMPACT (peptide sequence: TEVEVEELPPIDHGIPITDRR, peptide start residue: 163) (UniProt Q9P2X3)”, -0.415; under “COMMD9 (peptide sequence: ETLDTMLDGLGR, peptide start residue: 176) (UniProt Q9P000)”, 0.77.
Regarding “NAGK (peptide sequence: EGFLLALTQGR, peptide start residue: 281) (UniProt Q9UJ70)”, the log2 fold change is 0.563.
Consider “LCMT1 (peptide sequence: KTECHCQIVNLGAGMDTTFWR, peptide start residue: 87) (UniProt Q9UIC8)”, for which the log2 fold change is -0.232.
Under “FKBPL (peptide sequence: LTLASFTQGR, peptide start residue: 187) (UniProt Q9UIM3)” stands 0.261; under “SIX4 (peptide sequence: TIWDGEETVYCFKEK, peptide start residue: 219) (UniProt Q9UIU6)”, 0.456; under “UniProt Q9UGL1 (peptide sequence: ALIEESEMK, peptide start residue: 781)”, -0.279.
Take “NCDN (peptide sequence: EGAPSLLCK, peptide start residue: 484) (UniProt Q9UBB6)”: the log2 fold change turned out to be 0.583.
Under “RERE (peptide sequence: VDSFFYILGYNPETR, peptide start residue: 263) (UniProt Q9P2R6)” stands -0.141.
Under “ADD3 (peptide sequence: EQNRYDLK, peptide start residue: 510) (UniProt Q9UEY8)” stands 0.229; under “UniProt Q9P203 (peptide sequence: TGEEITDR, peptide start residue: 298)”, 0.376; under “ATXN10 (peptide sequence: VTLLDLMIAK, peptide start residue: 244) (UniProt Q9UBB4)”, 0.264.
Under “CNOT8 (peptide sequence: MKELFFEDSIDDAK, peptide start residue: 241) (UniProt Q9UFF9)” stands -0.15.
With “UniProt Q9NZV7 (peptide sequence: EVMLENYR, peptide start residue: 51)”, the log2 fold change was -0.157.
Under “LIMD1 (peptide sequence: TPSVSAPLALSCPR, peptide start residue: 294) (UniProt Q9UGP4)” stands -0.371.
For the target “KCMF1 (peptide sequence: QSMESERADR, peptide start residue: 307) (UniProt Q9P0J7)”, the log2 fold change turned out to be 0.547.
Under “NUDT4 (peptide sequence: LLGIFENQDRK, peptide start residue: 80) (UniProt Q9NZJ9)” stands 0.0504; under “UniProt Q9UHC1 (peptide sequence: SDLVLPFLPR, peptide start residue: 1104)”, 0.176; under “UniProt Q9UEU5 (peptide sequence: TPEEGEKQSQC, peptide start residue: 107)”, -0.0866.
Consider “EGFL7 (peptide sequence: NGGSCVQPGR, peptide start residue: 113) (UniProt Q9UHF1)”, for which the log2 fold change was -0.419.
For the target “UniProt Q9UI30 (peptide sequence: TMHHLLLEVEVIEGTLQCPESGR, peptide start residue: 83)”, the log2 fold change worked out at 0.237.
Regarding “SMARCAL1 (peptide sequence: IGQTSSVGIHYLVAK, peptide start residue: 821) (UniProt Q9NZC9)”, the log2 fold change was -0.331.
